Among the data in publication PMC4776236 are binding values, retold here.

By UniProt entry, the sequences of proteins in these tests, tags left out.
UniProt Q95V55: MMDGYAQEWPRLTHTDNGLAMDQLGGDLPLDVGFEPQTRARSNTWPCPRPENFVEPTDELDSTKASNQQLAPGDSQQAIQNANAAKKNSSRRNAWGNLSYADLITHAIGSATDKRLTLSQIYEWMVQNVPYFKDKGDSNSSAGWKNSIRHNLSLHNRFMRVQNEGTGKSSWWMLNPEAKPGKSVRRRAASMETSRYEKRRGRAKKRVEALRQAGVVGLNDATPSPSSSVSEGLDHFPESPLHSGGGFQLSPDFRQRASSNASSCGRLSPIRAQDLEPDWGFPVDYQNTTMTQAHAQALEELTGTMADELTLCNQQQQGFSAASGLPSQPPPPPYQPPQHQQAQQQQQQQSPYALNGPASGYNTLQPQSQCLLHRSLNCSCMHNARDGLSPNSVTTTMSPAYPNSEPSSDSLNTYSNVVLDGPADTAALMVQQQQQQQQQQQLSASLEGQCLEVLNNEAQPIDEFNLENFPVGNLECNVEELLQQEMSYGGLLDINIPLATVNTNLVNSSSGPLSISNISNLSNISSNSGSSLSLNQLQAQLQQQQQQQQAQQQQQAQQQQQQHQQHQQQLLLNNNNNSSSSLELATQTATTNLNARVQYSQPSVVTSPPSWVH

Results are given in words; binding and its absence hold for the method and conditions named. In cells and extracts the contact can be indirect. Some entries that bind do so weakly or less than the wild type. For part of these data: Where a sequence is shown, tags or fusion partners need not be part of it.

Test [1] deals with T1, Arm (ectopically expressed in the Drosophila eye) (Drosophila melanogaster) (UniProt P18824).
T1 sequence: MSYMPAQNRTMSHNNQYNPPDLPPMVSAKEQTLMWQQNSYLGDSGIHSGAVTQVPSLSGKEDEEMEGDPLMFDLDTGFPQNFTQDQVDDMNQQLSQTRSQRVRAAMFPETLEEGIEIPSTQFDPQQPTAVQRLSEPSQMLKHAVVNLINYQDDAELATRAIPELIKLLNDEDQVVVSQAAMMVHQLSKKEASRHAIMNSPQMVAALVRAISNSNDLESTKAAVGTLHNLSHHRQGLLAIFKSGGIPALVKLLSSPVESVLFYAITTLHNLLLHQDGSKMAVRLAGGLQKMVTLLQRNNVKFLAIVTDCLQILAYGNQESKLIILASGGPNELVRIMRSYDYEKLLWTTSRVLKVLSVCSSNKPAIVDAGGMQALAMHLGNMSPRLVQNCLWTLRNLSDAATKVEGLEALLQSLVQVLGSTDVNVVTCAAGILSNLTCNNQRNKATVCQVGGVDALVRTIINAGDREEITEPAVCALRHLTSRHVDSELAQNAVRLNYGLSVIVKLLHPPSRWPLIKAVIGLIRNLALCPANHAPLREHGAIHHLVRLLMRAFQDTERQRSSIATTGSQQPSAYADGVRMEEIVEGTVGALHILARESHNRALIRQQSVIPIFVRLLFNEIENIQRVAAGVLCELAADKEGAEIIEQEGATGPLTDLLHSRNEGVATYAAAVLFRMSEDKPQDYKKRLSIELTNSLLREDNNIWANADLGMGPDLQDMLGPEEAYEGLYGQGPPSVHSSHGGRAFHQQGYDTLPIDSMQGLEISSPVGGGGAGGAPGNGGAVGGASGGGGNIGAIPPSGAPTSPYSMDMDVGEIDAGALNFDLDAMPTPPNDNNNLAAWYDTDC
Briefly: co-IP; heads of flies co-expressing Arm and GFP-dFoxO in the eye, homogenized in lysis buffer; protein G Sepharose beads, western blot; both directions.

Test [2] deals with T2, Myc-tagged Arm (Drosophila melanogaster) (UniProt P18824).
T2 sequence: T1 sequence
Briefly: co-IP; S2 cells co-transfected with Flag-dFoxO and Myc-Arm for 48 h; pre-cleared lysates, indicated antibodies, protein G Sepharose beads, western blot; both directions. On the technique in general: In western blotting, separated proteins are transferred to a membrane and probed.

Test [3] concerns the target Flag-tagged dFoxO (Drosophila melanogaster) (UniProt Q95V55). As to the kind of experiment: co-IP; S2 cells co-expressing Flag-dFoxO, Myc-Arm and HA-Pan; precipitation with an anti-Flag antibody, western blot.
Test [4] has the same target. As to the kind of experiment: co-IP; S2 cells co-transfected with Flag-dFoxO and Myc-Arm for 48 h; pre-cleared lysates, indicated antibodies, protein G Sepharose beads, western blot; both directions.
Test [5] concerns the target GFP-dFoxO (Drosophila melanogaster) (UniProt Q95V55). As to the kind of experiment: co-IP; heads of flies co-expressing Arm and GFP-dFoxO in the eye, homogenized in lysis buffer; protein G Sepharose beads, western blot; both directions.

Turning to GFP-dFoxO (from UniProt Q95V55 1-613), in test [1], the binding result is recorded as “binds”.

Turning to “Flag-tagged dFoxO (from UniProt Q95V55 1-613)”, the binding result in test [2] is reported as “binds”.

B1: HA-Pan (protein, UniProt P91943 1-751)
chain: MPHTHSRHGSSGDDLCSTDEVKIFKDEGDREDEKISSENLLVEEKSSLIDLTESEEKGHKISRPDHSPVFNKLDTHAPSFNMGYLVSPYSYANGSPSGLPVTMANKIGLPPFFCHNADPLSTPPPAHCGIPPYQLDPKMGLTRPALYPFAGGQYPYPMLSSDMSQVASWHTPSVYSASSFRTPYPSSLPINTTLASDFPFRFSPSLLPSVHATSHHVINAHSAIVGVSSKQECGVQDPTTNNRYPRNLEAKHTSNAQSNESKETTNDKKKPHIKKPLNAFMLYMKEMRAKVVAECTLKESAAINQILGRRWHELSREEQSKYYEKARQERQLHMELYPGWSARDNYGYVSKKKKRKKDRSTTDSGGNNMKKCRARFGLDQQSQWCKPCRRKKKCIRYMEALNGNGPAEDGSCFDEHGSQLSDDDEDDYDDDKLGGSCGSADETNKIEDEDSESLNQSMPSPGCLSGLSSLQSPSTTMSLASPLNMNANSATNVIFPASSNALLIVGADQPTAQQRPTLVSTSGSSSGSTSSISTTPNTSSTVSPVTCMTGPCLGSSQERAMMLGNRFSHLGMGLSPPVVSTSTSKSEPFFKPHPTVCNNPIFALPSIGNCSLNISSMPNTSRNPIGANPRDINNPLSINQLTKRREYKNVELIEASESKTIVAHAATSIIQHVAVNGYHANHSLLNSNLGHLHHQLNNRTENPNRSEQTMLSVSNHSVNSSECHKESDSQAIVSSNPPNAGSSDNGVISVS
Take B1: the binding entry in test [3] is “binds”.

B2: Myc-tagged Arm (protein, UniProt P18824 1-843)
chain: T1 sequence
As to B2, the binding result in test [3] and in test [4] was “binds” each time.

B3: Arm (ectopically expressed in the Drosophila eye) (protein, UniProt P18824 1-843)
chain: T1 sequence
Consider B3, for which the binding result in test [5] was “binds”.
